21 compounds from PubChem BioAssay AID330 (DTP/NCI, 2004) can be followed below.

For the assay, the system named is P388 leukemia ip, CD2F1 mice, survival T/C. Put plainly: NCI In Vivo Anticancer Drug Screen. Data for tumor model P388 Leukemia (intraperitoneal) in CD2F1 (CDF1) mice. As to conditions: T/C endpoint: median survival time, higher T/C = longer survival.
Setting [1] is: dose: 200.0 mg/kg/injection, schedule: Q01DX009 (ip), vehicle: saline.
Where [2] appears, read: dose: 200.0 mg/kg/injection, schedule: Q04DX003 (ip), vehicle: saline.
The mark [3] stands for this setting: dose: 200.0 mg/kg/injection, schedule: Q01DX005 (ip), vehicle: Klucel (hydroxypropylcellulose) (HPC).
Where [4] appears, read: dose: 100.0 mg/kg/injection, schedule: Q04DX003 (ip), vehicle: saline with Tween-80.
Setting [5] is: dose: 200.0 mg/kg/injection, schedule: Q04DX003 (ip), vehicle: saline with Tween-80.
Where [6] appears, read: dose: 200.0 mg/kg/injection, schedule: Q01DX009 (ip), vehicle: saline with Tween-80.
The mark [7] stands for this setting: dose: 30.0 mg/kg/injection, schedule: Q01DX005 (ip), vehicle: saline.
The mark [8] stands for this setting: dose: 60.0 mg/kg/injection, schedule: Q01DX005 (ip), vehicle: saline.
The mark [9] stands for this setting: dose: 120.0 mg/kg/injection, schedule: Q01DX005 (ip), vehicle: saline.
Setting [10] is: dose: 240.0 mg/kg/injection, schedule: Q01DX005 (ip), vehicle: saline.

Structures are written as SMILES. The list is a part of this screen's results and no random one: it gathers tests that were run many times, whatever their T/C, doses with no T/C, and many T/C values between a quarter and a half above the control. Other doses and runs of a compound stand elsewhere. T/C gives the treated animals as a percentage of the vehicle group. Some doses have a count of surviving animals in place of a T/C: the source holds a T/C of zero for them, seemingly a mark for toxic or unscored doses. Some survivor counts are full or nearly so, which does not show that the dose was tolerated: the source hardly ever lists a survival T/C far under the control, and the zero likely stands for such cases as well. Counts of survivors are from the toxicity check (mostly the fifth day) where no day follows; animals may have died later. Schedules are NCI's codes, taken here to give the interval after Q, in days (D) or hours (H), and the number of doses after X. Some entries hold several experiments; their values stand side by side, smallest first. Some structures stand for samples that the source files as different forms (salt, stereo form or complex); doses refer to the form tested. For survival time, this PubChem deposit counts one and a half times the control or more as active, and values a quarter to a half above the control carry no call in these data; other NCI protocols may use other cut-offs. Some T/C values are followed by the survivors on the day toxicity was checked, most often the fifth; without a count, all were alive then.

For `BrCC[N+]12CC[N+](CCBr)(CC1)C2`, the T/C is 134 % of control (dose: 12.5 mg/kg/injection, schedule: Q01DX009 (ip), vehicle: saline); 131 and 143 % of control (dose: 25.0 mg/kg/injection, schedule: Q01DX009 (ip), vehicle: saline); 145 % of control (dose: 50.0 mg/kg/injection, schedule: Q01DX009 (ip), vehicle: saline); 129 % of control under setting [1]; 142 % of control (dose: 200.0 mg/kg/injection, schedule: Q04DX003 (ip), vehicle: water). Moreover, the survivor count (dose: 400.0 mg/kg/injection, schedule: Q01DX009 (ip), vehicle: saline) is 0 of 6 and the survivor count (dose: 600.0 mg/kg/injection, schedule: Q04DX003 (ip), vehicle: water) is given as 2 of 6.
For `Cc1cc(OCCCCCCC[N+](C)(C)Cc2ccc([N+](=O)[O-])o2)c(C(C)C)cc1Cl`, the survivor count was 3 of 6 (dose: 50.0 mg/kg/injection, schedule: Q04DX003 (ip), vehicle: saline); 0 of 6 (dose: 100.0 mg/kg/injection, schedule: Q04DX003 (ip), vehicle: saline); 0 of 6 under setting [2]; 0 of 6 (dose: 400.0 mg/kg/injection, schedule: Q04DX003 (ip), vehicle: saline).
`CC(=O)N1CCCC2=C1CCCC2`: under setting [2], the survivor count was 5 of 6.
`C(Oc1nc(OCC2CO2)nc(OCC2CO2)n1)C1CO1` (stereo not drawn): the survivor count runs as follows: (dose: 100.0 mg/kg/injection, schedule: Q01DX009 (ip), vehicle: saline) 4 of 6; under setting [1], 4 of 6.
Regarding `CCNC1CCC(Nc2ccnc3cc(Cl)ccc23)CC1` (stereo not drawn), the survivor count under setting [3] is 2 of 6.
Regarding `CC(=NCc1ccccc1)/C(=N\O)C(=O)Nc1ccc(Cl)cc1`, the survivor count by setting is: under setting [4], 6 of 6; under setting [5], 6 of 6.
Turning to `CC(=N/NC(=S)NCCN1CCCC1)/C(C)=N\NC(=S)NCCN1CCCC1`, the survivor count reads like this: under setting [4], 0 of 6; under setting [5], 0 of 6; (dose: 400.0 mg/kg/injection, schedule: Q04DX003 (ip), vehicle: saline with Tween-80) 0 of 6.
Consider `C[n+]1noc([O-])c1-c1ccccc1`, for which the survivor count under setting [6] is reported as 5 of 6.
As to `CC(CCCN(CCCl)CCCl)Nc1ccnc2cc(Cl)ccc12` (stereo not drawn), the T/C by setting is: (dose: 0.25 mg/kg/injection, schedule: Q01DX009 (ip), vehicle: saline + alcohol) 127 % of control [5 of 6 alive]; (dose: 0.44 mg/kg/injection, schedule: Q01DX009 (ip), vehicle: saline) 127 % of control; (dose: 0.5 mg/kg/injection, schedule: Q01DX009 (ip), vehicle: saline + alcohol) 145 % of control [5 of 6 alive]; (dose: 1.0 mg/kg/injection, schedule: Q01DX009 (ip), vehicle: saline) 140 % of control.
For `Cc1cc(NN=O)nc(C)c1C#N`, the T/C (dose: 12.5 mg/kg/injection, schedule: Q01DX009 (ip), vehicle: water) was 125 % of control.
On to `O=S(=O)(CS(=O)(=O)c1ccc(Cl)c(Cl)c1)c1ccc(Cl)c(Cl)c1`, for which the survivor count (dose: 240.0 mg/kg/injection, schedule: Q01DX005 (ip), vehicle: Klucel + Tween-80) is listed as 4 of 6.
As for `CC(=O)Nc1ccc2nc3ccc(NC(C)=O)cc3[n+](-c3ccccc3)c2c1`, for the setting “dose: 15.6 mg/kg/injection, schedule: Q01DX010 (ip), vehicle: saline”, the T/C was 145 % of control.
Consider `N#CC1CCCC(C#N)N1Cc1ccccc1` (stereo not drawn), for which, where the note is “dose: 240.0 mg/kg/injection, schedule: Q01DX005 (ip), vehicle: Klucel (hydroxypropylcellulose) (HPC)”, the survivor count was 0 of 6.
For `COc1cccc2cc3c(NCCCN(C)C)nnc(NCCCN(C)C)c3cc12`, the survivor count by setting is: under setting [7], 0 of 6; under setting [8], 0 of 6; under setting [9], 0 of 6; under setting [10], 0 of 6.
Turning to `[C-]#[N+]C1CC2CCC1C2.[C-]#[N+]C1CC2CCC1C2.[C-]#[N+]C1CC2CCC1C2.[C-]#[N+]C1CC2CCC1C2.[C-]#[N+]C1CC2CCC1C2.[C-]#[N+]C1CC2CCC1C2.[Mn]` (stereo not drawn), the T/C is, setting by setting: (dose: 0.19 mg/kg/injection, schedule: Q01DX009 (ip), vehicle: saline with Tween-80) 142 % of control; (dose: 0.38 mg/kg/injection, schedule: Q01DX009 (ip), vehicle: saline with Tween-80) 131 % of control. The survivor count is given as 4 of 6 (dose: 1.5 mg/kg/injection, schedule: Q01DX009 (ip), vehicle: saline with Tween-80); 0 of 6 (dose: 3.0 mg/kg/injection, schedule: Q01DX009 (ip), vehicle: saline with Tween-80); 0 of 6 (dose: 6.0 mg/kg/injection, schedule: Q01DX009 (ip), vehicle: saline with Tween-80); 0 of 6 (dose: 6.25 mg/kg/injection, schedule: Q01DX009 (ip), vehicle: saline with Tween-80); 0 of 6 (dose: 12.5 mg/kg/injection, schedule: Q01DX009 (ip), vehicle: saline with Tween-80); 0 of 6 (dose: 25.0 mg/kg/injection, schedule: Q01DX009 (ip), vehicle: saline with Tween-80). In addition, the survivor count is, setting by setting: (dose: 50.0 mg/kg/injection, schedule: Q01DX009 (ip), vehicle: saline with Tween-80) 0 of 6; (dose: 100.0 mg/kg/injection, schedule: Q01DX009 (ip), vehicle: saline with Tween-80) 0 of 6; under setting [6], 0 of 6.
For the compound `O=C(CBr)C1(Br)CCN(Cc2ccccc2)CC1`, the survivor count is, setting by setting: (dose: 100.0 mg/kg/injection, schedule: Q01DX009 (ip), vehicle: Klucel (hydroxypropylcellulose) (HPC)) 0 of 6; (dose: 200.0 mg/kg/injection, schedule: Q01DX009 (ip), vehicle: Klucel (hydroxypropylcellulose) (HPC)) 0 of 6; (dose: 400.0 mg/kg/injection, schedule: Q01DX009 (ip), vehicle: Klucel (hydroxypropylcellulose) (HPC)) 0 of 6.
`C=C1CCN(c2ccc(N3CCC(=C)C3=O)cc2)C1=O`: the survivor count (dose: 12.5 mg/kg/injection, schedule: Q01DX009 (ip), vehicle: saline + alcohol) is listed as 6 of 6.
`C=CCc1cc(Nc2c3ccc(Cl)cc3nc3ccc(OC)cc23)cc(CN(CC)CC)c1O`: the survivor count is 1 of 6 and 4 of 6 (dose: 12.5 mg/kg/injection, schedule: Q01DX005 (ip), vehicle: Klucel (hydroxypropylcellulose) (HPC)); 0 of 5 and 0 of 6 (dose: 25.0 mg/kg/injection, schedule: Q01DX005 (ip), vehicle: Klucel (hydroxypropylcellulose) (HPC)); 0 of 5 (dose: 50.0 mg/kg/injection, schedule: Q01DX005 (ip), vehicle: Klucel (hydroxypropylcellulose) (HPC)); 0 of 5 (dose: 100.0 mg/kg/injection, schedule: Q01DX005 (ip), vehicle: Klucel (hydroxypropylcellulose) (HPC)); 0 of 5 under setting [3].
On to `CN(C)CC(CN(C)C)C(=O)c1ccc(Oc2ccccc2)cc1`, for which the survivor count is recorded as 4 of 6 under setting [7], 0 of 6 under setting [8], 0 of 6 under setting [9] and 0 of 6 under setting [10].
Regarding `CCCCCC[N+](CCCCCC)(CCCCCC)CCCCCC`, the T/C runs as follows: (dose: 1.3 mg/kg/injection, schedule: Q01DX009 (ip), vehicle: saline) 149 % of control; (dose: 2.0 mg/kg/injection, schedule: Q01DX009 (ip), vehicle: saline) 132 % of control; (dose: 3.0 mg/kg/injection, schedule: Q01DX009 (ip), vehicle: saline) 132 % of control [4 of 6 alive]. The survivor count (dose: 4.5 mg/kg/injection, schedule: Q01DX009 (ip), vehicle: saline) is 2 of 6.
`C[n+]1[se]c2ccccc2c1Cl`: the survivor count is given as 4 of 6 (dose: 25.0 mg/kg/injection, schedule: Q01DX009 (ip), vehicle: Klucel (hydroxypropylcellulose) (HPC)) and 0 of 6 (dose: 50.0 mg/kg/injection, schedule: Q01DX009 (ip), vehicle: Klucel (hydroxypropylcellulose) (HPC)).
